## Results from one PubChem assay

Data taken from PubChem BioAssay AID1963991, deposited by NCATS (2024).

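CellTiter-Glo luminescence measures how many UOK109 TFE3-RCC cells stay viable after two days of treatment.
Each compound was run as a concentration series, and the potency comes from that titration.
The number is the fitted AC50 for loss of viability; a lower value means a more potent compound.
All of these compounds are filed inconclusive. An active call needs an area-under-curve z-score below -0.8 in all three TFE3-fusion lines, and an inactive call needs flat class-4 curves in all three.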

Values are in µM.
Every entry below has the call inconclusive.
These entries are mostly ones the record files as inconclusive; other results of the assay are not listed here.
A potency from a partial, single-point or poor curve is only a rough figure.
Some entries filed as inconclusive have a full curve.
Activity scores are not listed here.

compound,condition,Potency (µM),curve as filed
CS(=O)(=O)c1ccc(C(=O)Nc2ccc(Cl)c(-c3ccccn3)c2)c(Cl)c1,active = Z-AUC below -0.8 in all three lines,18.65,"falling, partial curve"
CCc1cc(Nc2nccc(-c3c(-c4ccc(OC)c(C(=O)Nc5c(F)cccc5F)c4)nc4ccccn34)n2)c(OC)cc1N1CCC(N2CCN(S(C)(=O)=O)CC2)CC1,active = Z-AUC below -0.8 in all three lines,1.177,"falling, full curve"
CCc1ccc(C(=O)Nc2cc(CN3CCN(C)CC3)cc(C(F)(F)F)c2)cc1C#Cc1cnc2ccnn2c1,active = Z-AUC below -0.8 in all three lines,23.48,"falling, partial curve"
COc1cnc(NS(=O)(=O)c2ccc(N)cc2)nc1,active = Z-AUC below -0.8 in all three lines,13.21,"falling, partial curve"
C[C@@H]1COC(Nc2ccc3ncnc(Nc4ccc(OCc5nccs5)c(Cl)c4)c3c2)=N1,active = Z-AUC below -0.8 in all three lines,0.2957,"falling, full curve"
CN1CCc2c(n(Cc3ccc(C(=O)NO)cc3)c3ccccc23)C1,active = Z-AUC below -0.8 in all three lines,18.65,"falling, partial curve"
C[C@@H]1[C@@H](CC(C[C@H]2O[C@@H]3O[C@]4(C)CC[C@@H]5[C@H](C)CC[C@@H]([C@H]2C)[C@@]35OO4)C[S+](=O)([O-])c2ccc(COC(=O)N(C)C)cc2)O[C@@H]2O[C@]3(C)CC[C@H]4[C@H](C)CC[C@@H]1[C@@]24OO3 (some centres unmarked),-,0.7427,"falling, full curve"
CCN(CC)CCCCNc1ncc2cc(-c3cc(OC)cc(OC)c3)c(NC(=O)NC(C)(C)C)nc2n1,active = Z-AUC below -0.8 in all three lines,16.63,"falling, partial curve"
O=C(c1ccc(OCCN2CCCCC2)cc1)c1c(-c2ccc(O)cc2)sc2cc(O)ccc12,active = Z-AUC below -0.8 in all three lines,7.427,"falling, partial curve"
C[N+](C)([O-])CCNc1ccc(NCC[N+](C)(C)[O-])c2c1C(=O)c1c(O)ccc(O)c1C2=O,active = Z-AUC below -0.8 in all three lines,16.63,"falling, partial curve"
Cc1cnc(CNC(=O)c2c(=O)c3ccc(N4CCCN(C)CC4)nc3n3c2sc2ccccc23)cn1,active = Z-AUC below -0.8 in all three lines,1.147,"falling, partial curve"
O=C(Nc1cccc(C(F)(F)F)c1)Nc1cc(S(=O)(=O)NC2CC2)ccc1-c1ccsc1,active = Z-AUC below -0.8 in all three lines,18.65,"falling, partial curve, poor fit"
O=C(CCCCCCNC(=O)c1cnc(N(c2ccccc2)c2ccccc2)nc1)NO,active = Z-AUC below -0.8 in all three lines,11.77,"falling, partial curve"
CN(C)C1CCN(C(=O)c2ccc(NC(=O)Nc3nc(N4CCOCC4)nc(N4CCOCC4)n3)cc2)CC1,active = Z-AUC below -0.8 in all three lines,1.177,"falling, full curve"
CC#C[C@]1(O)CC[C@H]2[C@@H]3CCC4=CC(=O)CCC4=C3[C@@H](c3ccc(N(C)C)cc3)C[C@@]21C,active = Z-AUC below -0.8 in all three lines,1.177,"falling, full curve"
CCC(C=C[C@@H]1OC(=O)C=C[C@H]1C)=C[C@H](C)CC=CC(C)=C[C@@H](C)C(=O)[C@@H](C)[C@H](O)[C@@H](C)CC(C)=CC(=O)O,active = Z-AUC below -0.8 in all three lines,0.07815,"falling, full curve"
Cc1nc(NC(=O)N2CCC[C@@H]2C(N)=O)sc1-c1csc(C(C)(C)C)n1,active = Z-AUC below -0.8 in all three lines,0.02635,"falling, full curve"
COc1cc(F)c(F)c(Nc2ccc(I)cc2F)c1NS(=O)(=O)C1(C[C@H](O)CO)CC1,active = Z-AUC below -0.8 in all three lines,6.619,"falling, partial curve, poor fit"
Nc1[nH]nc2nnc(-c3c(-c4ccccc4)nn4ccccc34)cc12,active = Z-AUC below -0.8 in all three lines,7.427,"falling, partial curve"
CCOC(=O)C1=C(C)NC2=C(C(=O)CC(C)(C)C2)C1c1ccc(-c2ccccc2)cc1 (centres unmarked),active = Z-AUC below -0.8 in all three lines,14.82,"falling, partial curve"
Cc1ccc(S(=O)(=O)Nc2nc3ccccc3nc2Nc2ccc3nsnc3c2)cc1,active = Z-AUC below -0.8 in all three lines,0.9111,"falling, full curve"
COc1ccc(-n2nc(C(N)=O)c3c2C(=O)N(c2ccc(N4CCCCC4=O)cc2)CC3)cc1,active = Z-AUC below -0.8 in all three lines,117.7,"falling, single point"
CN1CCN(CCCN2c3ccccc3Sc3ccc(C(F)(F)F)cc32)CC1,active = Z-AUC below -0.8 in all three lines,2.957,"falling, full curve"
CCN(CCO)CCCC(C)Nc1ccnc2cc(Cl)ccc12 (centres unmarked),active = Z-AUC below -0.8 in all three lines,2.957,"falling, partial curve, poor fit"
CCS(=O)(=O)c1cccc(-c2cc(C(=O)NC3CCN(C)CC3)c(C)c3[nH]c4ncc(C)cc4c23)c1,active = Z-AUC below -0.8 in all three lines,18.65,"falling, partial curve"
CC1C(=O)OC2C(O)C34C5CC(C(C)(C)C)C36C(OC(=O)C6O)OC4(C(=O)O5)C12O (centres unmarked),active = Z-AUC below -0.8 in all three lines,16.63,-
O=C1Nc2ccc(I)cc2C1=Cc1cc(Br)c(O)c(Br)c1,active = Z-AUC below -0.8 in all three lines,4.176,"falling, full curve"
CN1C(=O)COc2c(C(=O)NC3CN4CCC3CC4)cc(Cl)cc21 (centres unmarked),-,20.93,"falling, partial curve, poor fit"

3 of the entries, repeated:

* COc1ccc(-n2nc(C(N)=O)c3c2C(=O)N(c2ccc(N4CCCCC4=O)cc2)CC3)cc1 [active = Z-AUC below -0.8 in all three lines] : Potency 117.7 µM (falling, single point)
* COc1cnc(NS(=O)(=O)c2ccc(N)cc2)nc1 [active = Z-AUC below -0.8 in all three lines] : Potency 13.21 µM (falling, partial curve)
* CN1CCN(CCCN2c3ccccc3Sc3ccc(C(F)(F)F)cc32)CC1 [active = Z-AUC below -0.8 in all three lines] : Potency 2.957 µM (falling, full curve)